Measured values reported in PubChem BioAssay AID256 (DTP/NCI, 2004).
The list is a part of this screen's results and no random one: it is rich in T/C values a quarter to a half above the control, in often repeated tests (any T/C) and in doses without a T/C. Other doses and runs of a compound stand elsewhere. T/C: endpoint of the treated group in % of that of the vehicle group. Some entries give survivors of the animals treated and no T/C: the source holds a T/C of zero for them, seemingly a mark for toxic or unscored doses. Some doses without a T/C left all or most animals alive at the check, yet need not have been tolerated: survival well below the control is almost never listed, so the zero probably covers shortened survival too. Survivors were counted at the toxicity check, usually on the fifth day, unless a day is given; later deaths do not show. Schedule codes are those of the source, taken here to give the interval after Q, in days (D) or hours (H), and the number of doses after X. Some entries hold several experiments; the values are given in rising order. For survival time, the PubChem record calls one and a half times the control and up active, and a quarter to a half above the control has no call in these data; cut-offs in other NCI protocols can differ.

Test system: CD2F1 mice, L1210 leukemia ip, survival T/C
Test: NCI In Vivo Anticancer Drug Screen. Data for tumor model L1210 Leukemia (intraperitoneal) in CD2F1 (CDF1) mice
Details: higher T/C = longer survival
Protocol: The antitumor activity of compounds was measured in mice bearing transplantable tumors. Survival or tumor size were measured and the results are expressed as the measurement made in the treated group (T) divided by the measurement made in the vehicle treated control group (C). The tumor model used in this assay is L1210 Leukemia (intraperitoneal) in CD2F1 (CDF1) mice

[1] = T/C endpoint: mean survival time, dose: 200.0 mg/kg/injection, schedule: Q01DX009 (ip), vehicle: saline with Tween-80
[2] = T/C endpoint: mean survival time, dose: 400.0 mg/kg/injection, schedule: Q04DX003 (ip), vehicle: saline with Tween-80
[3] = T/C endpoint: mean survival time, dose: 100.0 mg/kg/injection, schedule: Q04DX002 (ip), vehicle: saline with Tween-80

For `CNC(C)COc1ccc(O)cc1` (stereo not drawn), the survivor count (T/C endpoint: mean survival time, dose: 400.0 mg/kg/injection, schedule: Q01DX009 (ip), vehicle: saline) was 3 of 6.

`O=C1c2ccccc2C(=O)N1CCS(=O)(=O)Cl` was tested, and the survivor count [1] was 0 of 3 and the survivor count (T/C endpoint: mean survival time, dose: 400.0 mg/kg/injection, schedule: Q01DX001 (ip), vehicle: saline with Tween-80) was 1 of 6.

In the case of `COCCC1(CN2c3ccccc3Sc3ccccc32)CCN(C)C1` (stereo not drawn), the survivor count (T/C endpoint: mean survival time, dose: 400.0 mg/kg/injection, schedule: Q04DX003 (ip), vehicle: saline) is reported as 0 of 6.

In the case of `COc1cccc2c1C(=O)c1c(O)c3c(c(O)c1C2=O)C[C@@](O)(/C(C)=N/NC(=O)c1ccc(Cl)cc1)C[C@@H]3OC1CC(N)C(O)C(C)O1` (stereo partly drawn), the T/C (T/C endpoint: mean survival time, dose: 1.0 mg/kg/injection, schedule: Q01DX009 (ip), vehicle: saline) is reported as 134 % of control, the T/C (T/C endpoint: mean survival time, dose: 4.0 mg/kg/injection, schedule: Q01DX009 (ip), vehicle: saline) is reported as 146 % of control and the T/C (T/C endpoint: mean survival time, dose: 4.0 mg/kg/injection, schedule: Q01DX009 (ip), vehicle: suspension in saline) is reported as 133 % of control. The T/C (T/C endpoint: mean survival time, dose: 8.0 mg/kg/injection, schedule: Q01DX009 (ip), vehicle: saline) was 138 % of control, the T/C (T/C endpoint: mean survival time, dose: 8.0 mg/kg/injection, schedule: Q01DX009 (ip), vehicle: suspension in saline) was 127 % of control and the T/C (T/C endpoint: mean survival time, dose: 16.0 mg/kg/injection, schedule: Q01DX009 (ip), vehicle: suspension in saline) was 147 % of control.

In the case of `CC(=O)CC(OC(=O)c1cc([N+](=O)[O-])cc([N+](=O)[O-])c1)(C(F)(F)F)C(F)(F)F`, the survivor count (T/C endpoint: mean survival time, dose: 200.0 mg/kg/injection, schedule: Q04DX003 (ip), vehicle: Klucel (hydroxypropylcellulose) (HPC)) is reported as 2 of 6 and the survivor count (T/C endpoint: mean survival time, dose: 400.0 mg/kg/injection, schedule: Q04DX003 (ip), vehicle: Klucel (hydroxypropylcellulose) (HPC)) is reported as 0 of 6.

For `COc1ccc(OC)c(C2N(Cc3ccc(N(C)C)cc3)CCCN2Cc2ccc(N(C)C)cc2)c1`, the survivor count [2] was 5 of 6.

For `N#CC1C(=O)NC(O)(c2ccccc2)C1c1ccccc1` (stereo not drawn), the survivor count (T/C endpoint: mean survival time, dose: 200.0 mg/kg/injection, schedule: Q04DX003 (ip), vehicle: saline with Tween-80) was 3 of 3 and the survivor count [2] was 1 of 3.

With `C(=N/N=C/c1ccc2c(c1)OCO2)/c1ccco1` the survivor count (T/C endpoint: mean survival time, dose: 100.0 mg/kg/injection, schedule: Q01DX009 (ip), vehicle: saline with Tween-80) was 6 of 6.

For `O=C1OC(c2ccc(Cl)cc2)=N/C1=C\c1ccccc1`, the survivor count (T/C endpoint: mean survival time, dose: 400.0 mg/kg/injection, schedule: Q01DX009 (ip), vehicle: acetone) was 2 of 6.

With `CCN(CC)C(=O)SCCSC(=O)N(CC)CC` the survivor count [3] was 3 of 3.

In the case of `O=Cc1ccccc1O.O=Cc1ccccc1O.O=Cc1ccccc1O.[La]`, the survivor count [2] is reported as 5 of 6.

`C=C(C)CNC1=C(C)C(=O)C2=C(C1=O)[C@@H](COC(N)=O)[C@]1(O)[C@H]3[C@@H](CN21)N3C` (stereo partly drawn) was tested, and the T/C (T/C endpoint: mean survival time, dose: 50.0 mg/kg/injection, schedule: Q01DX001 (ip), vehicle: distilled water + Tween-80) was 138 % of control.

`CCCSCC` was tested, and the survivor count [1] was 6 of 6 and the survivor count (T/C endpoint: mean survival time, dose: 400.0 mg/kg/injection, schedule: Q01DX009 (ip), vehicle: saline with Tween-80) was 5 of 6.

In the case of `CCC[CH2][Sn]1([CH2]CCC)[O]C(=O)C2CC=CCC2C(=O)[O]1` (stereo not drawn), the survivor count (T/C endpoint: mean survival time, dose: 400.0 mg/kg/injection, schedule: Q01DX001 (ip), vehicle: saline) is reported as 1 of 4.

In the case of `CC[C@@]1(OC(=O)CCC(=O)O)C(=O)OCc2c1cc1n(c2=O)Cc2cc3ccccc3nc2-1`, the T/C (T/C endpoint: median survival time, dose: 8.79 mg/kg/injection, schedule: Q04HX004 (iv), vehicle: water) is reported as 142 % of control, the T/C (T/C endpoint: median survival time, dose: 23.45 mg/kg/injection, schedule: Q04DX002 (ip), vehicle: water) is reported as 137 and 142 % of control and the survivor count (T/C endpoint: median survival time, dose: 46.9 mg/kg/injection, schedule: Q04HX004 (iv), vehicle: water) is reported as 0 of 6 and 2 of 6.

For `COc1ccc(NC(=O)Oc2ccc(C3CCCCC3)cc2)cc1`, the survivor count [3] was 3 of 3 and the survivor count (T/C endpoint: mean survival time, dose: 400.0 mg/kg/injection, schedule: Q04DX002 (ip), vehicle: saline with Tween-80) was 3 of 3.
